Experimental data from article PMC10082586 (Cancer chemotherapy and pharmacology, 2022).
Read-outs that look alike come from different tables or passages of the source.

Tests used:
in vivo [1] = settings: Balb/c, mouse, iv, 4 mg/kg
in vitro = settings: Balb/c, mouse, plasma
[2] = mouse, in vivo
[3] = Balb/c, mouse, in vivo
in vivo [4] = settings: Balb/c, mouse, po, 10 mg/kg

C[C@@H]1COCCN1c1cc(-c2ccnn2C)c2ccnc(-c3ccn[nH]3)c2n1 [BAY-1895344] gave a Vd (in vivo [1]) of 7.31 L/kg, a clearance (in vivo [1]) of 55.8 mL/min/kg and a fraction unbound at 16 h, 50 ng/mL (in vitro) of 0.166. The fraction unbound at 16 h, 5000 ng/mL (in vitro) was 0.198, the “Bone marrow partitioning compared to AZD6738” value ([2]; Balb/c) was “approximately 50%” and the “Brain and spinal cord partitioning higher than AZD6738” value ([2]; Balb/c) was ~ 10 fold. The 0-24h feces ([2]; Balb/c, po, 10 mg/kg) was 1.16 % dose, the 0-24h urine ([2]; Balb/c, po, 10 mg/kg) was 0.0192 % dose and the Cl ([2]; Balb/c, po, 10 mg/kg) was 278 mL/min/kg. For the same molecule, the Vd ([2]; Balb/c, po, 10 mg/kg) was 43.2 L/kg, the “Draining lymph node partitioning compared to AZD6738” value [2] was “two-fold higher” and the “Esophagus partitioning compared to AZD6738” value [2] was “four-fold higher”. The “Administered drug recovered unaltered in urine” value [3] was less than 0.1%, the “Half-life of PO treated mice greater than IV half-life” value [3] was 50-100% and the “Lung and kidney partitioning, PO treated groups higher than IV group” value [3] was “approximately 50%”. The 0-24h feces ([3]; iv, 4 mg/kg) was 1.04 % dose, the 0-24h urine ([3]; iv, 4 mg/kg) was 0.102 % dose and the 0-24h feces ([3]; po, 1 mg/kg) was 1.91 % dose. The 0-24h urine ([3]; po, 1 mg/kg) was 0.0238 % dose, the Vd ([3]; po, 1 mg/kg) was 122 L/kg and the 0-24h feces ([3]; po, 4 mg/kg) was 2.45 % dose. The 0-24h urine ([3]; po, 4 mg/kg) was 0.0150 % dose, the Vd ([3]; po, 4 mg/kg) was 77.7 L/kg and the 0-24h feces ([3]; po, 10 mg/kg) was 1.82 % dose. It also gave a 0-24h urine ([3]; po, 10 mg/kg) of 0.0129 % dose, a Vd ([3]; po, 10 mg/kg) of 78.4 L/kg and a 0-24h feces ([3]; po, 40 mg/kg) of 5.20 % dose. For the same molecule, the 0-24h urine ([3]; po, 40 mg/kg) was 0.0314 % dose, the Vd ([3]; po, 40 mg/kg) was 24.2 L/kg and the half-life (in vivo [4]) was 1.8 h. For the same molecule, the AUC(0-t) (in vivo [4]; AUC0-360) was 512 ng·h/mL.
